[ ]: non-standard residue; d: D form. The star is where a group is joined. ClZ = O=C(OCc1ccccc1Cl)*; Cbz = O=C(OCc1ccccc1)*; OBn = c1ccc(CO*)cc1; Sar = CNCC(=O)O
Experiment: peptide synthesis
Settings: coupling step

Cbz-AGGD(OBn)[Sar]K(ClZ)-OBn
step yield: 35% | final HPLC purity (HPLC): 96.25%
